# Source: the supplement of paper PMC12067093, “Discovery and optimisation of a covalent ligand for TRIM25 and its application to targeted protein ubiquitination” (Chemical Science, 2025)
# Amino acid sequences for entries named in this document (tags omitted). A change or cut given only in a name is not applied to a line headed by its entry.
# UniProt Q14258, whole entry, looked up: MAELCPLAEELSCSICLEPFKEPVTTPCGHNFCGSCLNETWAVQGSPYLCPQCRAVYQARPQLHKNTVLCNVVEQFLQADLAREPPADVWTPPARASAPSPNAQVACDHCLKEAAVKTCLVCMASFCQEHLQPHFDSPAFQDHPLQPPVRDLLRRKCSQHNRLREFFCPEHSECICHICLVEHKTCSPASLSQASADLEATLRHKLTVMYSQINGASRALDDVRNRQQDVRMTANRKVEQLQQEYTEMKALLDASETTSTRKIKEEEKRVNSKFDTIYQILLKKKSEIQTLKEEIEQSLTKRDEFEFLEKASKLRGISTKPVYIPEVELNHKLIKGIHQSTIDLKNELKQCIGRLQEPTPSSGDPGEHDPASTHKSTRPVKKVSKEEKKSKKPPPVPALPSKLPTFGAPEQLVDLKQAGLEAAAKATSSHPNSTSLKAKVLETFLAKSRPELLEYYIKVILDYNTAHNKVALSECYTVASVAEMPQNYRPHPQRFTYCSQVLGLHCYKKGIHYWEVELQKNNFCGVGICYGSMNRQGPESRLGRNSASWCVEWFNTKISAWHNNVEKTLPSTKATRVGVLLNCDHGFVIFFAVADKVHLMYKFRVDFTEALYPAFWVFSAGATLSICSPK
# UniProt O15164: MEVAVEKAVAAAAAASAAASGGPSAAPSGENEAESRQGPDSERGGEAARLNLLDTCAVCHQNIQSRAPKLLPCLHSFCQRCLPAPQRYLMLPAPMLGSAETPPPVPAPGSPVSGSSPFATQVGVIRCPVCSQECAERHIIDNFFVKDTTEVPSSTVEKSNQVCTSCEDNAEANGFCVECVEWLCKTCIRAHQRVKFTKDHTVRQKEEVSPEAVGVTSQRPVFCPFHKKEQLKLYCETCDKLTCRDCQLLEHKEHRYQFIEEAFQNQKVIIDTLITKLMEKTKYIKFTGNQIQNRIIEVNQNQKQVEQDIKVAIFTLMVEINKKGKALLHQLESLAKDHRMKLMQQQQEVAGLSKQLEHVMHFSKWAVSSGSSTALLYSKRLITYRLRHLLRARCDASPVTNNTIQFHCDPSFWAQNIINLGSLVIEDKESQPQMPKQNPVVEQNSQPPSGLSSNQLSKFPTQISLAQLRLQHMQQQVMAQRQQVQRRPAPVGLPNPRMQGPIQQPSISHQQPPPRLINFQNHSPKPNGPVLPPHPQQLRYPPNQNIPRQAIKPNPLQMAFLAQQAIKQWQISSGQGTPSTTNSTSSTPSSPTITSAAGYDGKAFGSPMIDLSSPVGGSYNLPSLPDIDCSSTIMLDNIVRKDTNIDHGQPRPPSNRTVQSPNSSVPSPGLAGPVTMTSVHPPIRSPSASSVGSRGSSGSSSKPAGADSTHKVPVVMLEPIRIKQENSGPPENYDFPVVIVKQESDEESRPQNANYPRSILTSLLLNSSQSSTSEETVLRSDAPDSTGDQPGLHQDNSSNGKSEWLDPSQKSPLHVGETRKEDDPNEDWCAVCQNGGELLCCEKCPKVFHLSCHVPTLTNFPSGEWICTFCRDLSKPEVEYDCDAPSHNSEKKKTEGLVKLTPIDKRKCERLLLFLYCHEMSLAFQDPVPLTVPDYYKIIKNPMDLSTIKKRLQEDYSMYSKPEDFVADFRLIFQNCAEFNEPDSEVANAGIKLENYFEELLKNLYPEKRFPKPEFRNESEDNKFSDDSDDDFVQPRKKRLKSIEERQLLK
# UniProt Q15654: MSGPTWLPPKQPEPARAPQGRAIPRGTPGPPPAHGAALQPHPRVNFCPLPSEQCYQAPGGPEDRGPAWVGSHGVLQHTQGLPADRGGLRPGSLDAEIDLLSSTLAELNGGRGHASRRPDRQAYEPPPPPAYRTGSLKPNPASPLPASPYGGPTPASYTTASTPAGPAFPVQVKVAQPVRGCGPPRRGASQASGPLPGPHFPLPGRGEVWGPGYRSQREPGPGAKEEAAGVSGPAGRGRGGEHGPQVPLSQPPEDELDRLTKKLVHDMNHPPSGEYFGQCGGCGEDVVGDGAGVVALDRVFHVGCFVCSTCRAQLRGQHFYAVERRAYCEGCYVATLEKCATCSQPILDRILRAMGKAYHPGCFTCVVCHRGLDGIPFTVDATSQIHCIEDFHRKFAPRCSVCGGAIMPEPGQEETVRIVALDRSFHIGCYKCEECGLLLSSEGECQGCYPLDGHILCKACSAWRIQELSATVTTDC
# UniProt P19474, whole entry, looked up: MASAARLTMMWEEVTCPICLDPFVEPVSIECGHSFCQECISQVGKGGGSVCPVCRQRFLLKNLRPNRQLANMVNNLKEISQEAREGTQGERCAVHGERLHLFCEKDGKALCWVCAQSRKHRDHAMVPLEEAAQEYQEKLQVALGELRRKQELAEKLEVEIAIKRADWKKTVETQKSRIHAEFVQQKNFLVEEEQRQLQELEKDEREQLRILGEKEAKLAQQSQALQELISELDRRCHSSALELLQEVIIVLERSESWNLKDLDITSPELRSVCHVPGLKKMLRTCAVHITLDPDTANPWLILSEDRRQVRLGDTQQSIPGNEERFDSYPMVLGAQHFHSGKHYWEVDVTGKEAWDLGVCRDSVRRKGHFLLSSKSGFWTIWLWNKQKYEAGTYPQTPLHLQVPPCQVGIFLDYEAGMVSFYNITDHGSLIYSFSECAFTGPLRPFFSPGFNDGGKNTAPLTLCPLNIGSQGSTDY
# UniProt O14773: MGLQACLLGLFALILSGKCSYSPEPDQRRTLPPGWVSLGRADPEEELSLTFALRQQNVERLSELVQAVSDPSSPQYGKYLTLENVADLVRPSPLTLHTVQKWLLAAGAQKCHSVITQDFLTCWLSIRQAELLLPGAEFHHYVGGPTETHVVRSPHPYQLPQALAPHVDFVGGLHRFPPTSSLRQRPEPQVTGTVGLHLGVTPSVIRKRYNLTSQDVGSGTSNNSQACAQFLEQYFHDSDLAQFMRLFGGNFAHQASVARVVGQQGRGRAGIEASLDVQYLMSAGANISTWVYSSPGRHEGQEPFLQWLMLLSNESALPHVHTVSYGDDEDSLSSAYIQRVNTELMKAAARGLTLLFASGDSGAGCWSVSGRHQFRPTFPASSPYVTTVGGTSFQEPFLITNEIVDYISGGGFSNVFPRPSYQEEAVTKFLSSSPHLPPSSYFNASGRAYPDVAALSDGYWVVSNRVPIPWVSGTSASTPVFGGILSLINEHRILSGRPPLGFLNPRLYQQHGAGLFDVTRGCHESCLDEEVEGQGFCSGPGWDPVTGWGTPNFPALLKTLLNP
# UniProt Q9NQ86: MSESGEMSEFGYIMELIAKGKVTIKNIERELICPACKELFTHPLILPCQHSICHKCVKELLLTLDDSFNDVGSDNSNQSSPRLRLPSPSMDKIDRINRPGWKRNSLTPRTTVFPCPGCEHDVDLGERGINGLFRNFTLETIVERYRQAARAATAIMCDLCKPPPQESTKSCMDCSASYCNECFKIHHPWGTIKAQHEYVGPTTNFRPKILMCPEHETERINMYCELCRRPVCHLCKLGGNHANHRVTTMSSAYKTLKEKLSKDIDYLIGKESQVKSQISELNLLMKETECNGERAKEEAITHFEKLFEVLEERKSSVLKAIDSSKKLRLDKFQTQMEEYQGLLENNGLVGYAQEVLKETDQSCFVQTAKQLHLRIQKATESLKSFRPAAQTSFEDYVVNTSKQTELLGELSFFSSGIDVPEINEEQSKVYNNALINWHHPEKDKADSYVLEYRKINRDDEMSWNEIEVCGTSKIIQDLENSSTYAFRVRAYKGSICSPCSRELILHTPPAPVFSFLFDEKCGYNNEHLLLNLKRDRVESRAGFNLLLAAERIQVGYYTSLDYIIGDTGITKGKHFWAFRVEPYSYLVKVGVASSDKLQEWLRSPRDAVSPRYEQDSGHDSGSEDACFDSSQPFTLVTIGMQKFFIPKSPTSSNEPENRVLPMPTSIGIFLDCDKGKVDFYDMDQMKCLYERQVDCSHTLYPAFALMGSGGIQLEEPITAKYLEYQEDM
# UniProt O14545: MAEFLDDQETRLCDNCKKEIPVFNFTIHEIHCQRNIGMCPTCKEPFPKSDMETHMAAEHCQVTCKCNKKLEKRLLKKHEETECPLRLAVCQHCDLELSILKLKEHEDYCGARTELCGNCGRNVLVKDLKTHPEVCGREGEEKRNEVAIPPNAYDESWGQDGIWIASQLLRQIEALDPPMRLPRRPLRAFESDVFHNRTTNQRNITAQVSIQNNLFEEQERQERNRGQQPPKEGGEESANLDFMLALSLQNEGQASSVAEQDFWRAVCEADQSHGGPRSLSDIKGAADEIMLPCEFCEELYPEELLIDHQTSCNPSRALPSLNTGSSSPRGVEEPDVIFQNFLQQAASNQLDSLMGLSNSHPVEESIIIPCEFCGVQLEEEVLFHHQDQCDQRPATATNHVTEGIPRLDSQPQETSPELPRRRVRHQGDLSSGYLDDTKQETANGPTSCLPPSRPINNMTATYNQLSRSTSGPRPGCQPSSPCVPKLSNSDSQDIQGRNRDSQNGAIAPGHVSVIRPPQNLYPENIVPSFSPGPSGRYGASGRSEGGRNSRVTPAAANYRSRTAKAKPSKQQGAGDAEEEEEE
# UniProt P48553, whole entry, looked up: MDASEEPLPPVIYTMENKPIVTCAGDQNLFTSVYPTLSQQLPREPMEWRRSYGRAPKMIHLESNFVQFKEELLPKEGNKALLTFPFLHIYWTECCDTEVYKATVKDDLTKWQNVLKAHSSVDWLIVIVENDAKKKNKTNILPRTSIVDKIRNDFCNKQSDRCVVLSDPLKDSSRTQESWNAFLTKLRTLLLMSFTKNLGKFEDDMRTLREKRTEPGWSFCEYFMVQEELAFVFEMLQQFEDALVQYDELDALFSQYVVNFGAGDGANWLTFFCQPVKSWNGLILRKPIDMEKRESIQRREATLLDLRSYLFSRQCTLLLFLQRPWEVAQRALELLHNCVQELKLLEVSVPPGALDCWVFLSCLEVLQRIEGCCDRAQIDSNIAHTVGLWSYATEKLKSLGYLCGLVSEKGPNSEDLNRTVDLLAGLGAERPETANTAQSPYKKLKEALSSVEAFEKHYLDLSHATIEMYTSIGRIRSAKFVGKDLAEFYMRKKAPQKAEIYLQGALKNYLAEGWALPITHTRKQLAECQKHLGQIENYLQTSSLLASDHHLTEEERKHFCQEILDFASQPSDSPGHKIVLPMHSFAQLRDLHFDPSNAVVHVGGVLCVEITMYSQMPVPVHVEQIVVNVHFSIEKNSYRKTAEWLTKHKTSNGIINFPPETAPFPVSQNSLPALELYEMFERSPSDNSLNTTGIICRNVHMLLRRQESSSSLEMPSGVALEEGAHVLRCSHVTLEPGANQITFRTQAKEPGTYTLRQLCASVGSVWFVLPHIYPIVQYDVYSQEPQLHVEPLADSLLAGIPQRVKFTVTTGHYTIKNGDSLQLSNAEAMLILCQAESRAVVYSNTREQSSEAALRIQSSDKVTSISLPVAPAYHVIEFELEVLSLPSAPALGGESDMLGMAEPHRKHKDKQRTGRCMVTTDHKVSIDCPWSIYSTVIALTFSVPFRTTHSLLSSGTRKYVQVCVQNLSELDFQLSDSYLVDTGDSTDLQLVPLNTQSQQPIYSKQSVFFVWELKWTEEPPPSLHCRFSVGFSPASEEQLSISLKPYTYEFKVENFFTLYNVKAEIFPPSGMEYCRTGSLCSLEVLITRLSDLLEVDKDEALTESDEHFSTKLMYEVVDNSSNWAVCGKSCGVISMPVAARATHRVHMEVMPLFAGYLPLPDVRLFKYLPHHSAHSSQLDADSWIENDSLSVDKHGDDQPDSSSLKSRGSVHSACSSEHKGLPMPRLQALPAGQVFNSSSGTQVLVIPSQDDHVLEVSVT
# UniProt Q9Y228: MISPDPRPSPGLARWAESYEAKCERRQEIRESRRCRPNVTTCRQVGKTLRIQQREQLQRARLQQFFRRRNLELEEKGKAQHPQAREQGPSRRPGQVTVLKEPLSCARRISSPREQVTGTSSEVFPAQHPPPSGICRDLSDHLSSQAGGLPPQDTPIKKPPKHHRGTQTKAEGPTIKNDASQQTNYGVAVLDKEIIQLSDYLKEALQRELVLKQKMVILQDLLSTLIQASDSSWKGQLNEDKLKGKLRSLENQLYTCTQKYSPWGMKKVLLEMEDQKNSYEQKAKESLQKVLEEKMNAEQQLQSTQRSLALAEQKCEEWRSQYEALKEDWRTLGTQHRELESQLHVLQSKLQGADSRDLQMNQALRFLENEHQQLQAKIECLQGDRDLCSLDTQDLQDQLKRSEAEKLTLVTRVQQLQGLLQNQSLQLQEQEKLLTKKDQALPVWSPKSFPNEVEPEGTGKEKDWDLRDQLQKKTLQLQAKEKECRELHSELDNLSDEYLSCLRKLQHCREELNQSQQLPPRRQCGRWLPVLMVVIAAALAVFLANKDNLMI
# UniProt Q9UL33, whole entry, looked up: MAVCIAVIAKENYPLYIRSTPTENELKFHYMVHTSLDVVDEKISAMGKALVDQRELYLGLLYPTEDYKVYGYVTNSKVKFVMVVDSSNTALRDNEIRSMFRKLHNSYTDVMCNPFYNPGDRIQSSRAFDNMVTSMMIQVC
# This is one part of the list.
# Compound: CC1Cc2ccccc2N1C(=O)C1CCCN(C1)C(=O)CCl (mixture of isomers) [TRIM25 ligand 11 (diastereomer mixture)]
# Assay: probe-labelled cysteine peptide fold change vs DMSO (competition) (log2 fold change); higher = less target engagement (more negative = stronger competition)
# Conditions: THP-1, incubation time: 4 h
# 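Note: competitive chemoproteomic profiling in live THP-1 cells with an iodoacetamide desthiobiotin (IA-DTB) probe, comparing probe-labelled peptide intensities in compound-treated cells against DMSO-treated controls.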
Target,probe-labelled cysteine peptide fold change (10 µM),probe-labelled cysteine peptide fold change (50 µM)
TRMT10C_Q7L0Y3_78_SSVQEECVSTISSSKDEDPLAATR (UniProt Q7L0Y3),0.052,-0.25
TPP2_P29144_1218_NCIQLMK (UniProt P29144),0.0168,0.124
TRIM25_Q14258_174+176+179_EFFCPEHSECICHICLVEHK (UniProt Q14258),-0.0285,-0.208
TRIM24_O15164_223_QKEEVSPEAVGVTSQRPVFCPFHK (UniProt O15164),-0.0299,-0.169
TRIM28_Q13263_229_HEPLVLFCESCDTLTCR (UniProt Q13263),-0.075,0.0103
TRIP6_Q15654_304+310_VFHVGCFVCSTCR (UniProt Q15654),0.268,0.0519
TPP2_P29144_787_YEDLAPCITLK (UniProt P29144),0.15,0.214
TRIP6_Q15654_476_IQELSATVTTDC (UniProt Q15654),-0.0843,0.217
TRAP1_Q12931_573_SPAAECLSEK (UniProt Q12931),0.218,0.114
TRERF1_Q96PN7_517_LTCSICLK (UniProt Q96PN7),0.0605,0.138
TRAPPC9_Q96Q05_317_NCLSPEDIIDK (UniProt Q96Q05),0.0206,0.00656
TPRKB_Q9Y3C4_167_LSSQEESIGTLLDAIICR (UniProt Q9Y3C4),-0.0232,0.141
TRABD_Q9H4I3_287_CVPSVVVGVVGMGHVPGIEK (UniProt Q9H4I3),0.0238,-0.222
TRIM25_Q14258_475_VALSECYTVASVAEMPQNYRPHPQR (UniProt Q14258),-0.073,-0.184
TRAF2_Q12933_124_EYESCHEGR (UniProt Q12933),0.147,-0.19
TRIM33_Q9UPN9_241_TCIEAHQR (UniProt Q9UPN9),-0.0332,0.196
TRIM38_O00635_104_ETDQEMSCEEHGEQFHLFCEDEGQLICWR (UniProt O00635),-0.0344,-0.223
TRIM21_P19474_103_LHLFCEK (UniProt P19474),0.0279,-0.00695
TRIM24_O15164_246_DCQLLEHK (UniProt O15164),-0.0322,0.016
TPP1_O14773_122_CHSVITQDFLTCWLSIR (UniProt O14773),-0.183,0.37
TRIM25_Q14258_174+176_EFFCPEHSECICHICLVEHK (UniProt Q14258),0.035,-0.0657
TRANK1_O15050_739_KDDKPTLGAGAPDCSEVGEGHAQVGLGALQLVPDDNR (UniProt O15050),-0.0168,-0.0611
TRIM21_P19474_114_ALCWVCAQSR (UniProt P19474),0.0585,0.169

Target,probe-labelled cysteine peptide fold change (10 µM),probe-labelled cysteine peptide fold change (50 µM)
TRAF2_Q12933_223_FHAIGCLETVEGEK (UniProt Q12933),-0.0116,0.0184
TRAF6_Q9Y4K3_208_EIHDQNCPLANVICEYCNTILIR (UniProt Q9Y4K3),0.204,0.174
TRIM36_Q9NQ86_212_ILMCPEHETER (UniProt Q9NQ86),-0.0219,-0.0877
TRAFD1_O14545_267_AVCEADQSHGGPR (UniProt O14545),-0.0698,-0.149
TPP2_P29144_197_YSDPGPVYDCLVWHDGEVWR (UniProt P29144),0.00189,0.0291
TRIM21_P19474_92_CAVHGER (UniProt P19474),0.00183,0.00161
TRAPPC13_A5PLN9-4_326_ITNCSSER (UniProt A5PLN9),0.111,-0.11
TREX1_Q9NSU2_77_ACSPAASEITGLSTAVLAAHGR (UniProt Q9NSU2),0.216,0.117
TRIM28_Q13263_713+717_VLLALFCHEPCRPLHQLATDSTFSLDQPGGTLDLTLIR (UniProt Q13263),-0.0638,-0.232
TRIM25_Q14258_174+176+179_LREFFCPEHSECICHICLVEHK (UniProt Q14258),-0.0904,-0.178
TRIM13_O60858_106_GHLGQPLNIFCLTDMQLICGICATR (UniProt O60858),0.0887,-0.0923
TRAPPC10_P48553_916_CMVTTDHK (UniProt P48553),-0.0367,-0.0966
TRAF3IP3_Q9Y228_508_KLQHCR (UniProt Q9Y228),-0.0651,-0.0223
TRIM25_Q14258_176+179_LREFFCPEHSECICHICLVEHK (UniProt Q14258),-0.0657,0.023
TRAF2_Q12933_49_RPFQAQCGHR (UniProt Q12933),0.0244,0.0147
TRIM14_Q14142_42_CVCALCPVLGAHR (UniProt Q14142),0.17,0.303
TRAPPC10_P48553_696_SPSDNSLNTTGIICR (UniProt P48553),0.0251,-0.124
TRIM32_Q13049_134_EADHQPPGHCTLPVK (UniProt Q13049),-0.0609,-0.199
TREX1_Q9NSU2_208_LYGQSPPDSHTAEGDVLALLSICQWRPQALLR (UniProt Q9NSU2),0.0866,0.304
TRIM24_O15164_223_EEVSPEAVGVTSQRPVFCPFHK (UniProt O15164),0.183,0.162
TPP1_O14773_111+122_CHSVITQDFLTCWLSIR (UniProt O14773),0.138,-0.0762
TRAPPC8_Q9Y2L5_505_CVLLSAELLK (UniProt Q9Y2L5),-0.0145,0.0327
TRIM25_Q14258_186_TCSPASLSQASADLEATLR (UniProt Q14258),-0.0439,0.359

Target,probe-labelled cysteine peptide fold change (10 µM),probe-labelled cysteine peptide fold change (50 µM)
TRAFD1_O14545_64_SDMETHMAAEHCQVTCK (UniProt O14545),-0.0604,-0.132
TRIM36_Q9NQ86_469_INRDDEMSWNEIEVCGTSK (UniProt Q9NQ86),0.091,-0.142
TRIP12_Q14669_502_SVVPALITLLQMEHNFDIMNHACR (UniProt Q14669),0.00752,-0.0762
TRMT10A_Q8TBZ6_107_LIIDCSFDHLMVLK (UniProt Q8TBZ6),-0.0159,0.0514
TRAPPC10_P48553_162_CVVLSDPLK (UniProt P48553),0.0105,0.0359
TRIM56_Q9BRZ2_41_TLPCLHTYCQDCLAQLADGGR (UniProt Q9BRZ2),0.0138,0.00329
TRAFD1_O14545_135_THPEVCGR (UniProt O14545),-0.0543,-0.0761
TRIM28_Q13263_717_VLLALFCHEPCR (UniProt Q13263),0.073,0.00363
TPI1_P60174_164_VAHALAEGLGVIACIGEKLDEREAGITEK (UniProt P60174),-0.262,-0.0167
TRIP6_Q15654_339+342_CATCSQPILDR (UniProt Q15654),0.14,0.0825
TRAF3_Q13114_61_CHLVLCSPK (UniProt Q13114),-0.129,-0.0811
TRMT13_Q9NUP7_414_ITDDGADCLPGLLSVEEK (UniProt Q9NUP7),-0.0815,-0.018
TRAF3IP3_Q9Y228_135_EQVTGTSSEVFPAQHPPPSGICR (UniProt Q9Y228),-0.181,-0.181
TPP2_P29144_678+680_RHFIEVPEGATWAEVTVCSCSSEVSAK (UniProt P29144),0.155,0.225
TRIP6_Q15654_368_AYHPGCFTCVVCHR (UniProt Q15654),0.00592,-0.0192
TRAPPC10_P48553_560_HFCQEILDFASQPSDSPGHK (UniProt P48553),0.102,0.0533
TRIM21_P19474_285_TCAVHITLDPDTANPWLILSEDRR (UniProt P19474),0.0651,0.0601
TRIM28_Q13263_651_VCQKPGDLVMCNQCEFCFHLDCHLPALQDVPGEEWSCSLCHVLPDLK (UniProt Q13263),0.115,0.00701
TRAPPC2L_Q9UL33_112_LHNSYTDVMCNPFYNPGDR (UniProt Q9UL33),0.174,-0.235
TRERF1_Q96PN7_876_CHPLANYHYAGSDK (UniProt Q96PN7),-0.0269,-0.124
TRIM36_Q9NQ86_160_AATAIMCDLCKPPPQESTK (UniProt Q9NQ86),-0.4,-0.313
TRAF2_Q12933_303_VAMTAEACSR (UniProt Q12933),-0.0475,0.0504
TRIM25_Q14258_107+110_ASAPSPNAQVACDHCLK (UniProt Q14258),-0.0896,-0.121
